# PubChem BioAssay AID1224829, NIAID, 2016
# Aim: 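Genes needed for LPS-driven NF-kappaB p65 nuclear entry in mouse macrophages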 (follow-up of hits)
# Cells: mouse RAW264.7 G9 macrophage reporter cells
# Reagents: single siRNA against mouse genes, 100 nM
# Time to read-out: 2 days of siRNA knock-down, then 40 min of LPS before fixing
# Challenge: LPS (Salmonella minnesota R595) at 10 ng/ml
# Measured: 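High-content images after 40 min LPS exposure; GFP-p65 nucleus to surrounding ring signal ratio, normalised to plate median and non-targeting control wells, expressed as z-score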
# Scale: p65 translocation z-score: higher = more nuclear NF-kappaB p65 after LPS
# Call rule: 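Active means the replicate-mean z-score lies beyond plus or minus 2, in either direction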
# Calls: active = changed p65 translocation (either direction); inactive = no clear change
# The whole screen tested about 3,800 reagents; shown is a random part of them. 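Calls cover raised and lowered translocation; gene median uses one vendor's three siRNAs; qiagen siRNAs acted more weakly than ambion siRNAs.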 Entries without a mark were called inactive. Reagents against one gene are numbered here. Further read-outs or replicates are left out here.
gene,reagent no.,siRNA vendor or control pool,"p65 translocation z-score, replicate mean"
Gpr26 (GeneID 233919),1,ambion single siRNA,1.56
Gpr26 (GeneID 233919),2,ambion single siRNA,-1.76
Gpr26 (GeneID 233919),3,ambion single siRNA,-1.86
Gpr26 (GeneID 233919),4,qiagen single siRNA,-1.43
Gpr26 (GeneID 233919),5,qiagen single siRNA,-1.55
Gpr26 (GeneID 233919),6,qiagen single siRNA,-2.78 (active)
Adra1a (GeneID 11549),1,ambion single siRNA,1.38
Adra1a (GeneID 11549),2,ambion single siRNA,-1.7
Adra1a (GeneID 11549),3,ambion single siRNA,0.838
Adra1a (GeneID 11549),4,qiagen single siRNA,1.97
Adra1a (GeneID 11549),5,qiagen single siRNA,-2.29 (active)
Adra1a (GeneID 11549),6,qiagen single siRNA,-2.59 (active)
Fas (GeneID 14102),1,ambion single siRNA,-2.66 (active)
Fas (GeneID 14102),2,ambion single siRNA,-0.446
Fas (GeneID 14102),3,ambion single siRNA,-2.99 (active)
Fas (GeneID 14102),4,qiagen single siRNA,1.52
Fas (GeneID 14102),5,qiagen single siRNA,1.16
Fas (GeneID 14102),6,qiagen single siRNA,-2.53 (active)

Hits, among the entries above:
gene,reagent no.,siRNA vendor or control pool,"p65 translocation z-score, replicate mean"
Gpr26 (GeneID 233919),6,qiagen single siRNA,-2.78 (active)
Adra1a (GeneID 11549),5,qiagen single siRNA,-2.29 (active)
Adra1a (GeneID 11549),6,qiagen single siRNA,-2.59 (active)
Fas (GeneID 14102),1,ambion single siRNA,-2.66 (active)
Fas (GeneID 14102),3,ambion single siRNA,-2.99 (active)
Fas (GeneID 14102),6,qiagen single siRNA,-2.53 (active)

The list goes on:
gene,reagent no.,siRNA vendor or control pool,"p65 translocation z-score, replicate mean"
Tmem116 (GeneID 77462),1,ambion single siRNA,-2.26 (active)
Tmem116 (GeneID 77462),2,ambion single siRNA,-2.65 (active)
Tmem116 (GeneID 77462),3,ambion single siRNA,-1.03
Tmem116 (GeneID 77462),4,qiagen single siRNA,1.33
Tmem116 (GeneID 77462),5,qiagen single siRNA,-0.526
Tmem116 (GeneID 77462),6,qiagen single siRNA,-0.137
Batf3 (GeneID 381319),1,ambion single siRNA,0.561
Batf3 (GeneID 381319),2,ambion single siRNA,-3.8 (active)
Batf3 (GeneID 381319),3,ambion single siRNA,-3.9 (active)
Batf3 (GeneID 381319),4,qiagen single siRNA,-0.11
Batf3 (GeneID 381319),5,qiagen single siRNA,0.502
Batf3 (GeneID 381319),6,qiagen single siRNA,-2.01 (active)
Msn (GeneID 17698),1,ambion single siRNA,2.17 (active)
Msn (GeneID 17698),2,ambion single siRNA,-0.495
Msn (GeneID 17698),3,ambion single siRNA,-4.1 (active)
Msn (GeneID 17698),4,qiagen single siRNA,2.8 (active)
Msn (GeneID 17698),5,qiagen single siRNA,2.94 (active)
Msn (GeneID 17698),6,qiagen single siRNA,-0.647
